Assay results published in PubChem BioAssay AID485314 (National Center for Advancing Translational Sciences (NCATS), 2010).
The campaign covered roughly 340,000 compounds. About 4,500 (1.3%) were called active. The inconclusive results got no clear call from the source; some entries with a clear call stand among them for comparison. The call rests on the fitted dose curve; in most records, active means well fitted inhibition curve with a large enough effect; inconclusive means small, poorly fitted or top-dose-only effect, or another doubt; inactive means no such curve, though single readings can be large or run the other way. Potencies beside an inconclusive call are fits to weak or partial responses and may not hold up.

biological target: DNA polymerase beta (Homo sapiens) (UniProt P06746); assay: qHTS Assay for Inhibitors of DNA Polymerase Beta; settings: Pol beta primer extension/strand displacement, fluorescence kinetic; activity change, negative = inhibition: at 114 µM (top of the series)
Outline: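 Pol beta (10 nM) was preincubated with compound for 15 min at room temperature. The reaction was then started with 50 nM substrate and read immediately and after a further 10 min at room temperature.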
On the % scale 0 is the no-effect control and ±100 the full control effect; potency means the concentration at half of the fitted maximal effect.

SMILES | Potency | activity change, negative = inhibition
O=C1NC(=Nc2ccc3ccccc3c2)S/C1=C/c1ccco1 | active: 8.91 µM | –
O=C1C(c2cc(=O)c3ccccc3[nH]2)=C(O)c2ccccc21 | inconclusive: 20 µM [inhibitor, partial curve] | –
COc1ccc(/C=N/n2c(C)nc3c([nH]c4ccccc43)c2=O)cc1CN1CCCC(C)(C)C1 | inconclusive: 89.1 µM [inhibitor, single point] | –
COC(=O)c1ccccc1NC(=O)c1cc2ncc(Br)cn2n1 | active: 44.7 µM | –
Nc1ccc(N2CCOCC2)c(S(=O)(=O)Nc2cc(Cl)ccc2Cl)c1 | inconclusive: 35.5 µM [inhibitor, full curve, poor fit] | –
O=C(COc1ncnc2cc(Cl)ccc12)c1ccc2c(c1)OCCO2 | inconclusive: 1.41 µM [inhibitor, full curve, poor fit] | –
CN(C)c1ccc(N=Nc2ccccc2C(=O)OCC(=O)N2CCCC2)cc1 | inconclusive: 25.1 µM [inhibitor, single point] | –
CCCCN(C(=O)Cn1ncc(Cl)c(Cl)c1=O)c1c(N)n(CC(C)C)c(=O)[nH]c1=O | active: 22.4 µM | –
O=C(Cc1ncc(C(F)(F)F)cc1Cl)N1CCN(c2cccc(Cl)c2)CC1 | inconclusive: 79.4 µM [inhibitor, single point] | –
COC(=O)c1ccccc1NS(=O)(=O)c1ccc2c3c(cccc13)C(=O)N2 | inconclusive: 1 µM [inhibitor, full curve, poor fit] | –
Cc1ccc(NC(=O)CSCc2nc3c(nnn3Cc3ccc(F)cc3)c(=O)[nH]2)c(C)c1 | inconclusive: 1.58 µM [inhibitor, partial curve, poor fit] | –
COc1cc(C(=O)NC2CC(C)(C)Cc3c2cnn3-c2ccccc2)cc(OC)c1OC (stereo unspecified) | – | inconclusive: -42.5% [inhibitor]
CCOC(=O)c1ccc(NC(=O)c2cnc(N3CCCC3)nc2C)cc1 | inconclusive: 89.1 µM [inhibitor, single point] | –
CN(C)c1ccc(NC(=O)Cn2c(SCc3ccc(F)cc3)nc3cccnc32)cc1 | active: 17.8 µM | –
CCc1ccc(NC(=O)CSC2=Nc3ccccc3C3=NC(CC(=O)NCc4ccc5c(c4)OCO5)C(=O)N23)cc1 (stereo unspecified) | – | inactive: -9.56%
CCc1ccc2occ(CC(=O)Nc3c(C(=O)Nc4ccc(Cl)cc4)oc4ccccc34)c2c1 | inconclusive: 0.112 µM [inhibitor, full curve, poor fit] | –
COc1ccc(Cc2nnc(SCC(=O)NCc3ccco3)o2)cc1 | inconclusive: 20 µM [inhibitor, full curve] | –
CC1CC(C)CN(CCCNC(=O)CN2C(=O)c3cccnc3Oc3ccccc32)C1 (stereo unspecified) | – | inactive: 7.55%
O=C(N/N=C/C(Br)=C/c1ccccc1)c1cc(-c2ccco2)[nH]n1 | inconclusive: 39.8 µM [inhibitor, full curve] | –
CCOC(=O)CSC1=Nc2ccccc2C2=NC(CCC(=O)NCc3ccccc3)C(=O)N12 (stereo unspecified) | – | inactive: 13.2%
Cc1ccc(/C=C/C2=Cc3c(sc(NC(=O)CSc4n[nH]c(N)n4)c3C#N)C(C)(C)C2)o1 | active: 39.8 µM | –
CCc1cc(=O)oc2cc(C)c(CN3CCCCC3)c(O)c12 | active: 8.91 µM | –
O=C(Nc1ccccc1)N1CCCC1c1cccs1 (stereo unspecified) | inconclusive: 100 µM [inhibitor, single point] | –
CSC1=N/C(=C\C=C\c2cccs2)C(=O)S1 | active: 20 µM | –

Record cards, as listed above:
Cc1ccc(/C=C/C2=Cc3c(sc(NC(=O)CSc4n[nH]c(N)n4)c3C#N)C(C)(C)C2)o1 is listed with Potency: active: 39.8 µM
O=C1C(c2cc(=O)c3ccccc3[nH]2)=C(O)c2ccccc21 is listed with Potency: inconclusive: 20 µM [inhibitor, partial curve]
Cc1ccc(NC(=O)CSCc2nc3c(nnn3Cc3ccc(F)cc3)c(=O)[nH]2)c(C)c1 is listed with Potency: inconclusive: 1.58 µM [inhibitor, partial curve, poor fit]
CCCCN(C(=O)Cn1ncc(Cl)c(Cl)c1=O)c1c(N)n(CC(C)C)c(=O)[nH]c1=O is listed with Potency: active: 22.4 µM

(more compounds)

SMILES | Potency | activity change, negative = inhibition
O=c1[nH]c2ccccc2n1CCCOc1ccccc1 | inconclusive: 89.1 µM [inhibitor, single point] | –
O=C(OCc1c(F)cccc1Cl)c1cnc2ccccc2n1 | – | inactive: -12.4%
Cc1cc(C=C2C(=O)c3ccccc3C2=O)c(C)n1-c1cccc(C(=O)O)c1 | inconclusive: 22.4 µM [inhibitor, full curve] | –
O=C1C(Cl)=C(N2CCN(c3ccccc3[N+](=O)[O-])CC2)C(=O)c2ccccc21 | – | inactive: 27.9%
Cc1cc(NC(=O)CSc2nc(-c3ccc(Cl)cc3)cs2)no1 | inconclusive: 100 µM [inhibitor, partial curve, poor fit] | –
COc1ccc(C(=O)Nc2ccccc2C(=O)O)cc1NC(=O)C(c1ccccc1)c1ccccc1 | inconclusive: 79.4 µM [inhibitor, single point] | –
Cc1ccc(C)c(Cn2c(=O)n(CCCC(=O)NCc3ccco3)c(=O)c3sccc32)c1 | inconclusive: 2.82 µM [inhibitor, full curve] | –
COc1ccc(C2=NN(C(=O)CSc3nnc(-c4ccccc4F)o3)C(c3ccco3)C2)cc1 (stereo unspecified) | inconclusive: 89.1 µM [inhibitor, single point] | –
O=C(CSc1n[nH]c(-c2ccccc2)n1)c1ccc(O)c(O)c1 | active: 15.8 µM | –
COCCNc1cc(N2CCN(C3CCCCC3)CC2)c2noc3c2c1C(=O)c1ccccc1-3 | – | inactive: 66%
CC1(C)CC(=O)C2=C(C1)N(Cc1ccco1)C(=O)C2(NC(=O)C1CCCCC1)C(F)(F)F (stereo unspecified) | inconclusive: 35.5 µM [inhibitor, single point] | –
Cc1ccc(C(=O)Nc2nnc(SCc3cc(=O)c4c(C)ccc(C)c4[nH]3)s2)cc1 | active: 50.1 µM | –
N#CC1=C(N)Oc2n[nH]c(-c3ccncc3)c2C1c1ccsc1 (stereo unspecified) | – | inactive: -1.02%
Cn1c(=NC(=O)c2ccc(F)cc2)sc2cc(Br)ccc21 | inconclusive: 89.1 µM [inhibitor, single point] | –
N/C(=N/OC(=O)c1cccc([N+](=O)[O-])c1)c1cccc([N+](=O)[O-])c1 | inconclusive: 25.1 µM [inhibitor, full curve, poor fit] | –
CCOCN(C(=O)Cn1c(C)nc2ccccc21)c1c(C)cccc1CC | inconclusive: 89.1 µM [inhibitor, partial curve] | –
Cc1oc(C(=O)O)cc1COc1cccc2ccccc12 | – | inactive: -0.616%
CCCCN(CCCC)CC(O)COc1ccccc1C(=O)Nc1ccccc1 (stereo unspecified) | inconclusive: 79.4 µM [inhibitor, single point] | –
Cc1ccc(OCC(=O)Nc2cccc(C(=O)OCc3cc(=O)n4cc(C)sc4n3)c2)cc1 | – | inactive: -20.1%
CC(=O)c1cccc(NC(=O)c2sc3nc4c(cc3c2N)CCCC4)c1 | inconclusive: 3.16 µM [inhibitor, partial curve] | –
COc1ccc2c([N+](=O)[O-])c(Cl)[nH]c2c1 | – | inactive: -19.5%
COc1cc(/C=C2/C(=O)NN(c3ccc(C)c(Cl)c3)C2=O)cc([N+](=O)[O-])c1O | active: 35.5 µM | –
Cc1cccc(NC(=O)C2CC(=O)OC23CCCC3)c1 (stereo unspecified) | active: 28.2 µM | –
Cc1cc2nc(-c3ccc(SCC(=O)NC(C)C)nc3)[nH]c2cc1C | inconclusive: 89.1 µM [inhibitor, partial curve] | –

SMILES | Potency | activity change, negative = inhibition
O=C1COc2ccc(S(=O)(=O)NCCc3ccccc3)cc2N1 | – | inactive: 12.7%
O=C(CSC1=Nc2ccccc2C2=NC(CC(=O)N3CCN(c4ccccc4)CC3)C(=O)N12)NCC1CCCO1 (stereo unspecified) | inconclusive: 89.1 µM [inhibitor, single point] | –
Cc1cccc(CC(C)NC(=O)CCc2nnc(CCCCc3ccccc3)o2)n1 (stereo unspecified) | inconclusive: 89.1 µM [inhibitor, single point] | –
O=C(Nc1sc2c(c1C(=O)O)CCC2)c1ccccc1 | active: 20 µM | –
O=C(CCS(=O)(=O)c1ccccc1)NC1CCCCC1 | inconclusive: 100 µM [inhibitor, single point] | –
CCn1c(SCC(=O)NCCOC)nc2sc3c(c2c1=O)CCCC3 | inconclusive: 89.1 µM [inhibitor, single point] | –
COc1ccc(OCCCC(=O)N(C)CC(=O)Nc2ccccc2Cl)cc1 | – | inconclusive: -52.5% [inhibitor]
CCc1ccccc1N1C(=O)N(Cc2cccc(Cl)c2)c2ccccc2S1(=O)=O | – | inactive: -19.7%
O=C(NC1CCS(=O)(=O)C1)/C(=C/c1ccc(Cl)cc1)NC(=O)c1ccccc1 (stereo unspecified) | inconclusive: 89.1 µM [inhibitor, single point] | –
Cc1nc2c(c(C)nn2C(C)(C)C)c(C)c1CCC(=O)Nc1ccc(Br)cc1Br | – | inactive: 5.68%
CCn1c(=S)sc2c(=O)n(CC(=O)Nc3ccc(C(C)=O)cc3)c(C)nc21 | – | inconclusive: -35.8% [inhibitor]
Cn1cccc1Cc1nnc(SCC(=O)NCc2ccco2)n1CCc1ccccc1 | inconclusive: 17.8 µM [inhibitor, full curve] | –
CC(=O)Nc1cc(C(=O)Nc2ccc3c(c2)N(C)C(=O)c2ccccc2S3)ccc1C | – | inactive: 18.8%
CCOC(=O)Cn1c(=O)n(CC2CCCO2)c2nc(-c3ccc(CC)cc3)nc(C(N)=O)c21 (stereo unspecified) | – | inactive: 5.6%
CCCCOc1ccccc1C1CC(=O)Nc2cc(OC)c(OC)cc21 (stereo unspecified) | inconclusive: 100 µM [inhibitor, single point] | –
O=C(CSC1=NCCS1)Nc1nc2c(s1)CCCC2 | active: 56.2 µM | –
CCOc1ccc2[nH]c3c(NCCN(C)C)ncnc3c2c1 | active: 56.2 µM | –
S=c1[nH]nc(-c2ccc3ccccc3n2)n1-c1ccc2c(c1)OCCO2 | – | inconclusive: -36.8% [inhibitor]
CCOc1nc(Nc2ccc(Cl)cc2)nc(OCC)n1 | inconclusive: 14.1 µM [inhibitor, full curve] | –
CS(=O)(=O)Nc1ccc2c(c1)nc1n2CCOC1 | inconclusive: 3.98 µM [inhibitor, single point] | –
Cc1cc(N)c2ccccc2[n+]1CCCCCCCCCCCCCC[n+]1c(C)cc(N)c2ccccc21 | active: 10 µM | –
COCCNC(=O)CSc1nnc2[nH]c(=O)cc(C)n12 | inconclusive: 89.1 µM [inhibitor, single point] | –
